“And” between values parts separate entries of the source, which are not always exact repeats. Identical values can stand only once. Screen size: about 300,000 compounds; about 5,400 (1.8%) were called active. Inconclusive means that the source gave no clear call. Such entries were picked first, then a sample of the others. Calls follow the shape of the full dose curve; tested in HEK293 cells. Where the call is inconclusive, the potency comes from a doubtful curve fit. More than one record can exist for a structure, and the calls need not agree.
Experiment: qHTS for inhibitors of binding or entry into cells for Marburg Virus
Settings: Marburg virus pseudotyped entry inhibition, cell reporter; series mostly up to 37.8 µM
Potency is read from the fitted curve at half-maximal effect.

Q: With `CCCCCCCNc1cccc(C)c1` as the compound, how does the Potency read?
A: inactive

Q: Which Potency does the source give for `CNC(=O)O/N=C(\N)Cc1csc2ccccc12` here?
A: inconclusive: 1.12 µM [inhibitor, full curve, poor fit]

Q: For `CCOC(=O)C(=O)c1c(C)cc2ccccn12`, which Potency is on record?
A: inactive

Q: With `Cc1ccc(C)c(OCC(=O)NNC(=O)CSC(=S)N2CCCC2)c1` as the compound, how does the Potency read?
A: inactive

Q: For `CCCCn1c(/N=C/c2ccc(N(C)C)cc2)nc2ccccc21`, which Potency is on record?
A: inconclusive: 22.4 µM [inhibitor, single point]

Q: For `Cc1cc(C)n(-c2ccc(-n3ccnc3)nn2)n1`, which Potency is on record?
A: inactive

Q: With `S=C(NCc1ccco1)N1CCN(c2ccc(Cl)cc2)CC1` as the compound, how does the Potency read?
A: inconclusive: 10 µM [inhibitor, partial curve, poor fit]

Q: With `CN1CCN(C(=O)N2c3ccccc3C=Cc3ccccc32)CC1` as the compound, how does the Potency read?
A: active: 10 µM

Q: Which Potency does the source give for `CCOC(=O)c1cc2c(=O)n3ccccc3nc2n(C(C)C)c1=NC(=O)C(C)(C)Oc1ccc(Cl)cc1` here?
A: inactive

Q: For `O=C(Cn1ncc2c1-c1ccccc1OC2)N1CCN(Cc2ccccc2)CC1`, which Potency is on record?
A: inactive

Q: Which Potency does the source give for `Cc1cc(NC(=O)Cc2ccccc2)cc(-c2nc3ccccc3o2)c1O` here?
A: inactive

Q: For `CCn1cc(/C=C(\NC(=O)c2cc(OC)c(OC)c(OC)c2)C(=O)NCCCn2ccnc2)c2ccccc21`, which Potency is on record?
A: inconclusive: 35.5 µM [activator, partial curve, poor fit]

Q: With `C/C(=N\S(=O)(=O)c1ccc(C)cc1)N1CCN(S(=O)(=O)c2ccccc2)C1C(C)C` (stereo not drawn) as the compound, how does the Potency read?
A: inconclusive: 23.1 µM [inhibitor, single point]

Q: With `Cc1c(NC(=O)c2cccs2)cccc1-c1nc2ccccc2s1` as the compound, how does the Potency read?
A: inactive

Q: With `CCn1nc(C)c(NS(=O)(=O)c2ccc(C)cc2)c1C` as the compound, how does the Potency read?
A: inconclusive: 8.2 µM [inhibitor, partial curve]

Q: Which Potency does the source give for `CC(=O)c1ccc(N2CCN(C(=O)c3cc(-c4ccncc4)nc4ccc(Br)cc34)CC2)cc1` here?
A: inconclusive: 7.08 µM [inhibitor, partial curve, poor fit]

Q: For `COc1ccc(NC(=O)CSc2ccccc2)c([N+](=O)[O-])c1`, which Potency is on record?
A: inconclusive: 4.47 µM [activator, full curve, poor fit]

Q: For `Cc1ccc(CN2CCNC(=O)C2CC(=O)NCc2csc(C(C)C)n2)cc1` (stereo not drawn), which Potency is on record?
A: inactive

Q: With `CCn1c(=O)cc(OCC(=O)NCCCN2CCCC2=O)c2ccccc21` as the compound, how does the Potency read?
A: inconclusive: 6.31 µM [activator, single point]

Q: For `COc1ccc(CCNC(=O)c2ccc(CS(=O)Cc3ccc(C)cc3)o2)cc1OC` (stereo not drawn), which Potency is on record?
A: inactive

Q: Which Potency does the source give for `CC(NC(=O)CSc1nc2c(c(C(F)(F)F)n1)CCc1ccccc1-2)c1ccccc1` (stereo not drawn) here?
A: inconclusive: 14.1 µM [inhibitor, partial curve, poor fit]

Q: Which Potency does the source give for `COc1cccc(C(=O)N2CCN(Cc3ccco3)CC2)c1OC` here?
A: inconclusive: 22.4 µM [activator, single point]

Q: Which Potency does the source give for `Cc1ccc(S(=O)(=O)N2CCN(C(=O)CC(C)n3nc(C)c(Cl)c3C)CC2)cc1` (stereo not drawn) here?
A: inconclusive: 1.78 µM [inhibitor, partial curve, poor fit]

Q: With `O=C(CSc1nnc2ccccn12)Nc1ccc2c(c1)OCO2` as the compound, how does the Potency read?
A: inconclusive: 10 µM [activator, partial curve, poor fit]

Q: Which Potency does the source give for `Fc1ccccc1CSc1nncn1NCc1cccs1` here?
A: inconclusive: 29.1 µM [activator, single point]

Q: For `Cc1ccccc1-c1noc(-c2ccccc2OCC(=O)Nc2cccc([N+](=O)[O-])c2)n1`, which Potency is on record?
A: inactive

Q: For `CCc1c(C)sc(NC(=O)c2ccc(Br)o2)c1C(=O)OC`, which Potency is on record?
A: inconclusive: 23.1 µM [inhibitor, single point]

Q: With `COc1ccc(-c2noc(CCC(=O)NCCN(C)Cc3ccccc3)n2)cc1` as the compound, how does the Potency read?
A: inactive

Q: With `COc1cc(C2C(Oc3ccccc3C)C(=O)N2Cc2ccc(F)cc2)cc(OC)c1OC` (stereo not drawn) as the compound, how does the Potency read?
A: inconclusive: 29.1 µM [inhibitor, single point]

Q: Which Potency does the source give for `CCc1cccc(OCCn2nc(C(=O)O)c3ccccc3c2=O)c1` here?
A: inconclusive: 35.5 µM [inhibitor, single point]

Q: For `c1ccc(C2=Nn3c(nnc3-c3cc(-c4ccccc4)n[nH]3)SC2)cc1`, which Potency is on record?
A: inconclusive: 15.8 µM [inhibitor, partial curve, poor fit]

Q: For `O=C(CC1C(=O)NCCN1CC1CCCCC1)NCCc1ccc(F)cc1` (stereo not drawn), which Potency is on record?
A: inconclusive: 12.6 µM [inhibitor, single point]

Q: For `C/C(=N\NC(N)=S)C1(C)CC2(CC(C)(C)OC2=O)C(=O)O1` (stereo not drawn), which Potency is on record?
A: inactive

Q: For `c1ccc(-n2cc(CNCCc3cscn3)c(-c3ccc4c(c3)OCO4)n2)cc1`, which Potency is on record?
A: inconclusive: 11.2 µM [inhibitor, partial curve, poor fit]

Q: With `NNC(=O)c1ccc(OCC2CC(c3ccc(Cl)cc3)=NO2)cc1` (stereo not drawn) as the compound, how does the Potency read?
A: inconclusive: 20 µM [inhibitor, partial curve, poor fit]

Q: With `O=C(N/N=C/c1cc(Br)c(Br)o1)c1ccc2c(c1)OCCO2` as the compound, how does the Potency read?
A: inconclusive: 35.5 µM [inhibitor, single point]

Q: For `O=C(O)c1cccc(S(=O)(=O)N2CCN(S(=O)(=O)c3ccc4ccccc4c3)CC2)c1`, which Potency is on record?
A: inconclusive: 4.47 µM [inhibitor, single point]

Q: Which Potency does the source give for `COc1ccc(Cl)cc1S(=O)(=O)N1CCN(CC(=O)C(C)(C)C)CC1` here?
A: inconclusive: 14.1 µM [activator, partial curve, poor fit]

Q: With `COc1cccc(CN2CCN(Cc3ccccc3C(F)(F)F)CC2)c1` as the compound, how does the Potency read?
A: inconclusive: 31.6 µM [inhibitor, single point]

Q: Which Potency does the source give for `COc1ccc(/C=C/c2cc(C(F)(F)F)on2)cc1` here?
A: inconclusive: 5.62 µM [inhibitor, single point]

Q: Which Potency does the source give for `CCC(=O)c1ccc(OCC(=O)N(Cc2nnc(-c3ccccc3Cl)o2)C2CC2)cc1` here?
A: inconclusive: 0.1 µM [inhibitor, full curve, poor fit]

Q: Which Potency does the source give for `CCc1cccc(NC(=O)COC(=O)c2cc([N+](=O)[O-])ccc2N2CCOCC2)c1` here?
A: inconclusive: 7.94 µM [inhibitor, partial curve, poor fit]

Q: Which Potency does the source give for `CCOC(=O)C1(Cc2ccccc2)CCN(Cc2cn(CC(=O)OC)c3ccccc23)CC1` here?
A: inactive

Q: With `O=C(CN1CCC(C(=O)c2cccc(Cl)c2)CC1)Nc1cccc(C(=O)O)c1` as the compound, how does the Potency read?
A: inconclusive: 3.16 µM [inhibitor, single point]

Q: For `COc1ccc(C(Nc2ccccn2)c2ccc3ccc(C)nc3c2O)cc1C` (stereo not drawn), which Potency is on record?
A: inconclusive: 35.5 µM [inhibitor, single point]

Q: With `O=C(NCc1ccco1)C1CCN(C(=O)c2cc3sccc3n2Cc2ccc(Cl)cc2)CC1` as the compound, how does the Potency read?
A: inactive and active: 11.6 µM

Q: Which Potency does the source give for `CN(C(=O)COc1ccc(Cl)cc1Cl)C1(C)CCS(=O)(=O)C1` (stereo not drawn) here?
A: inconclusive: 35.5 µM [activator, single point]

Q: With `CN1CCN(C(=O)c2cc(-c3ccco3)on2)CC1` as the compound, how does the Potency read?
A: inconclusive: 35.5 µM [activator, single point]

Q: For `Cn1c(=O)cc(SCC(=O)Nc2ccc3c(c2)OCO3)c2ccccc21`, which Potency is on record?
A: inactive

Q: Which Potency does the source give for `COc1ccc(S(=O)(=O)Nc2ccc3oc4ncccc4c(=O)c3c2)cc1OC` here?
A: inconclusive: 3.16 µM [inhibitor, partial curve, poor fit]

Q: For `O=C(Cn1c2ccc(F)cc2c2nc3n(c(=O)c21)CCS3)Nc1ccc(Cl)cc1F`, which Potency is on record?
A: inconclusive: 7.08 µM [inhibitor, full curve, poor fit]

Q: With `CC(=O)Nc1ccc(S(=O)(=O)n2cnc3cc(C)c(C)cc32)cc1` as the compound, how does the Potency read?
A: inconclusive: 35.5 µM [inhibitor, single point]

Q: Which Potency does the source give for `CCCN(CCC)CCCNC(=O)c1cc2c(=O)n(C)c3ccccc3c2s1` here?
A: inconclusive: 5.62 µM [inhibitor, full curve, poor fit]

Q: With `O=C(CN(C(=O)CCC(=O)Nc1nccs1)c1cccc(F)c1)NCCc1ccccc1` as the compound, how does the Potency read?
A: inactive

Q: For `COc1ccc(-n2cc(CNCC3CC(=O)N(C4CC4)C3)c(-c3ccccc3Cl)n2)cc1` (stereo not drawn), which Potency is on record?
A: active: 11.2 µM

Q: With `O=C(NNC(=O)c1cccs1)c1ccc(F)cc1` as the compound, how does the Potency read?
A: inactive

Q: Which Potency does the source give for `COc1ccc(OC)c(-n2c(-c3cccc(O)c3)n[nH]c2=S)c1` here?
A: inactive

Q: With `CCOc1ccc(NC(=O)COC(=O)CN2CCCCCC2=O)cc1` as the compound, how does the Potency read?
A: inconclusive: 0.891 µM [inhibitor, single point]

Q: For `CSc1ccc(S(=O)(=O)NCC(=O)OC(C)C(=O)NCc2ccccc2)cc1[N+](=O)[O-]` (stereo not drawn), which Potency is on record?
A: inconclusive: 1 µM [inhibitor, full curve]

Q: With `CC(NC(=O)c1cc(S(=O)(=O)N2CCOCC2)ccc1N1CCCC1)c1ccc(Cl)c(Cl)c1` (stereo not drawn) as the compound, how does the Potency read?
A: inconclusive: 12.6 µM [inhibitor, partial curve, poor fit]

Q: Which Potency does the source give for `CC1CC1c1ccc(/C=C(\C#N)C(=O)Nc2cc(Cl)ccc2Cl)o1` (stereo not drawn) here?
A: inconclusive: 0.316 µM [activator, partial curve, poor fit]

Q: For `O=C1C(=O)N(Cc2cccnc2)[C@@H](c2ccccn2)/C1=C(\O)c1ccccc1`, which Potency is on record?
A: inactive

Q: For `CC(=O)Nc1ccc2c(c1)nc(CN1CCCC1)n2C`, which Potency is on record?
A: inactive

Q: With `CCOc1c(Br)cc(CNc2ccc3c(c2)OCCO3)cc1OC` as the compound, how does the Potency read?
A: inconclusive: 1.58 µM [inhibitor, full curve, poor fit]

Q: For `O=C(NCc1ccccc1)OCCN1CCN(Cc2ccccc2)CCC1=O`, which Potency is on record?
A: inconclusive: 0.0887 µM [inhibitor, full curve, poor fit]

Q: For `O=[N+]([O-])c1ccc(O)c(/C=N/n2cnc3ccccc32)c1`, which Potency is on record?
A: inconclusive: 35.5 µM [inhibitor, single point]

Q: Which Potency does the source give for `COc1ccccc1-c1csc(Cc2nnc3n2CCCCC3)n1` here?
A: inactive

Q: With `CSCc1nc2scc(-c3ccccc3)c2c(=O)[nH]1` as the compound, how does the Potency read?
A: inactive

Reference: PubChem BioAssay AID540276 (National Center for Advancing Translational Sciences (NCATS), 2011)
